# Assay results taken from patent US20260028364A1, “CATIONIC CHROMENONES AND THEIR USE IN ONCOLOGY” (FLORATEK PHARMA S.A., priority 2022, published 2026).
# For at least one compound, name, drawing or mass did not settle the structure.
# System: LoVo
# Assay: CellTiter-Glo cell viability, LoVo
# Type: cell-based
# Settings: LoVo cells, 72 h with compound
# Protocol: Antitumor activity against a panel of cancer cell lines Antitumor activity of the compounds was assessed by using the CellTiter-Glow® Luminescent Cell Viability assay (Promega #G7572) according to the manufacturer's instructions. The compounds were tested at 5 or 6 concentrations in 1:2 dilution increments (highest concentration 10 µM) in triplicate well conditions.
# Tumor cells were grown at 37° C. in a humidified atmosphere with 5% CO2 in RPMI 1640 or DMEM medium, supplemented with 10% (v/v) fetal calf serum and 50 μg/ml gentamicin for up to 20 passages, and were passaged once or twice weekly. Cells were harvested using TrypLE or PBS buffer containing 1 mM EDTA, and the percentage of viable cells is determined using a cell counter.
# Cells were harvested from exponential phase cultures, counted and plated in 96 well flat-bottom microtiter plates at a cell density depending on the cell line's growth rate (4,000-20,000 cells/well depending on the cell line's growth rate) in RPMI 1640 or DMEM medium supplemented with 10% (v/v) fetal calf serum and 50 μg/ml gentamicin (140 μl/well). Cultures were incubated at 37° C. and 5% CO2 in a humidified atmosphere. […] Viability of cells was quantified by the CellTiter-Glow® Luminescent Cell Viability assay (Promega #G7572). Luminescence was measured with the microplate luminometer (En Vision Perkin Elmer). […]
structure (smiles),measurement,value
COc1ccc2c(=O)c(-c3cccc(C[P+](c4ccccc4)(c4ccccc4)c4ccccc4)c3)coc2c1OC [SND543],IC50,14.7 µM
